These are yes or no findings as the source states them, for the method shown. Some entries that bind do so weakly or less than the wild type.
Target: Cdc42 (human) (UniProt P60953)
Assay: pull-down; (His)6-tagged GTPase held on nickel beads, 2 µg GST-tagged partner added; 20 mM HEPES pH 7.4, 150 mM NaCl, 5 mM MgCl2, 40 mM imidazole, 4 °C, 1 h; GST-tagged protein detected by anti-GST western blot; samples without effect of DC-Rhoin; both purified

By UniProt entry, the sequences of proteins in these tests, tags left out. Residues count along the entry.
UniProt P60953: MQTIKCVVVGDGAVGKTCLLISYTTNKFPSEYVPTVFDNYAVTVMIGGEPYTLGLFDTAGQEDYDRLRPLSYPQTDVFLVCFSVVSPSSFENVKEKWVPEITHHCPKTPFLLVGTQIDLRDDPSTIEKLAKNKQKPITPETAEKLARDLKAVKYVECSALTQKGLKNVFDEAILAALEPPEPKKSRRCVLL
UniProt Q15811, residues 1227-1571: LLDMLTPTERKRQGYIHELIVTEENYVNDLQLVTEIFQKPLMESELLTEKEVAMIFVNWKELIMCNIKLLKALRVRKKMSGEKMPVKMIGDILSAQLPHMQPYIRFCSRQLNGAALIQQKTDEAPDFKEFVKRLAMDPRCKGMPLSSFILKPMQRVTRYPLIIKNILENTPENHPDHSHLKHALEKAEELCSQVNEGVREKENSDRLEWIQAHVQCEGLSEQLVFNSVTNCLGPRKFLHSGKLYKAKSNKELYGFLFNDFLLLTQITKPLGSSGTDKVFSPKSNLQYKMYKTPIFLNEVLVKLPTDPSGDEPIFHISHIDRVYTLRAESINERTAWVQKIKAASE

binding: binds
Substance: intersectin1 (residues 1227-1571) (from UniProt Q15811 1227-1571) (domain or fragment)

From paper PMC7375240, “Covalent Inhibitors Allosterically Block the Activation of Rho Family Proteins and Suppress Cancer Cell Invasion” (Advanced Science, 2020)
